Assay results as given in PMC8185084.

Protein sequences, listed by entry. Tags and fused reporters are not part of them. Lines headed by an entry give the natural chain unless they say otherwise; changes in a name come on top.
UniProt Q60749: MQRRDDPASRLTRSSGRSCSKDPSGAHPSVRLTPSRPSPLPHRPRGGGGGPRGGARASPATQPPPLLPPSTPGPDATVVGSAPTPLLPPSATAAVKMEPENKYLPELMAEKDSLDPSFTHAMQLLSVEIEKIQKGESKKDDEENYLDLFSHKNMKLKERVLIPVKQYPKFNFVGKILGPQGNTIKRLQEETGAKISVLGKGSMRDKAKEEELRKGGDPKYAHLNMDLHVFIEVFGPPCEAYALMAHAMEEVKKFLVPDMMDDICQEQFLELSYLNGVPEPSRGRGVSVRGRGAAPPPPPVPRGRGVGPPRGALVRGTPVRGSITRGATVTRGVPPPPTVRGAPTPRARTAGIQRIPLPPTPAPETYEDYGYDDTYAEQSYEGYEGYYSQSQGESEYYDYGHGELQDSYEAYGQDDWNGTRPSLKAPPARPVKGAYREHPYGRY

Molecular target: HA-tagged Sam68 with P5 truncation (UniProt Q60749)
Assay: co-IP; HA-Sam68^ΔP5 and Flag-CRTC2 (Supplementary Fig. 4j); cells and direction not given

binding: no binding
B1: FLAG-tagged CRTC2 (protein, UniProt Q3U182 1-692)
chain: MATSGANGPGSATASASNPRKFSEKIALQKQRQAEETAAFEEVMMDIGSTRLQAQKLRLAYTRSSHYGGSLPNVNQIGCGLAEFQSPLHSPLDSSRSTRHHGLVERVQRDARRMVSPLRRYPRHIDSSPYSPAYLSPPPESGWRRMMPWGNLPAEKGQLFRLPSALNRTSSDSALHTSVMNPNPQDTYPGPTPPSVLPSRRGGGFLDGEMDAKVPAIEENVVDDKHLLKPWDAKKLSSSSSRPRSCEVPGINIFPSPDQPANVPVLPPAMNTGGSLPDLTNLHFPPPLPTPLDPEETVYPSLSGGNSTTNLTHTMTHLGISGGLGLGPSYDVPGLHSPLSHPSLQSSLSNPNLQASLSSPQPQLQGSHSHPSLPASSLAHHALPTTSLGHPSLSAPALSSSSSSSSTSSPVLSAPPYPASTPGASPRHRRVPLSPLSLPAGPADARRSQQQLPKQFSPTMSPTLSSITQGVPLDTSKLPTDQRLPPYPYSPPSLVIPTHPPTPKSLQQLPSQACLVQPSGGQPPGRQPHYGALYPPGSSGHGQQPYHRPINDFSLGNLEQFNMESPSTSLVLDPPAFSEGPGFLGSEGSMSGPQDPHVLNHQNLTHCSRHGSGPNIILTGDSSPGFSKEIAAALAGVPGFEVSASGLELGLGLEDELRMEPLGLEGLTMLSDPCALLPDPAVEDSFRSDRLQ

Results are given in words; binding and its absence hold for the method and conditions named. In cells and extracts the contact can be indirect. Tags and fused reporters may be left off the sequences shown.
